The list shows a part of the results, in another mix than the full data. The calls were merged from several studies; some rest on single wells. The list shows a part of the results.
Legend:
Conditions in all cases: stereoisomer not certain
Or10j5 (Mus musculus) = Or10j5 (Mus musculus) (UniProt Q62007)
Method in brief: (§1)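 Each entry records the cell line, G-protein, co-transfected protein and tags used. Methods varied with the source, often transient luciferase assays in mammalian cell lines. A receptor–molecule pair is called responsive (active) if the original authors judged its signal statistically different from baseline and non-responsive (inactive) otherwise.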

The chains behind the UniProt entries cited, without tags or fusion partners. Where a name states a change or a piece, a line headed by the entry shows the natural chain unless it says otherwise. A line that says so, or that is headed by a name, gives the form on record, which may keep a tag or linker.
UniProt Q62007: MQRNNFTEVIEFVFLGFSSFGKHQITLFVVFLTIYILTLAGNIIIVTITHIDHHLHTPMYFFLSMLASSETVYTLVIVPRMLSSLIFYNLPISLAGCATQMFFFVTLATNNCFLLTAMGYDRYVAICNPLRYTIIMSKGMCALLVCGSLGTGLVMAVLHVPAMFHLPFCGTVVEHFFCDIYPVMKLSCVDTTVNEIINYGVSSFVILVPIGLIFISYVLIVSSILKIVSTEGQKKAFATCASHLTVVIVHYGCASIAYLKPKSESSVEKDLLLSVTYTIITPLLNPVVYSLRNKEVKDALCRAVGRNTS
UniProt Q8VFM9: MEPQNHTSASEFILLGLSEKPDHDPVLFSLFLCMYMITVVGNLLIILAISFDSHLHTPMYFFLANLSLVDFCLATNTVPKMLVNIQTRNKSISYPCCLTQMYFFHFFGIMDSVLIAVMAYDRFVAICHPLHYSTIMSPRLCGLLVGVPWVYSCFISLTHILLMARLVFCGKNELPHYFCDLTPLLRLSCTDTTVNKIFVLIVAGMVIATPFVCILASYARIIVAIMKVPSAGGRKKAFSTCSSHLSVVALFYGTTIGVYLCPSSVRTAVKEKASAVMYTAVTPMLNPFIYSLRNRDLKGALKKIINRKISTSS
UniProt Q8VGS3: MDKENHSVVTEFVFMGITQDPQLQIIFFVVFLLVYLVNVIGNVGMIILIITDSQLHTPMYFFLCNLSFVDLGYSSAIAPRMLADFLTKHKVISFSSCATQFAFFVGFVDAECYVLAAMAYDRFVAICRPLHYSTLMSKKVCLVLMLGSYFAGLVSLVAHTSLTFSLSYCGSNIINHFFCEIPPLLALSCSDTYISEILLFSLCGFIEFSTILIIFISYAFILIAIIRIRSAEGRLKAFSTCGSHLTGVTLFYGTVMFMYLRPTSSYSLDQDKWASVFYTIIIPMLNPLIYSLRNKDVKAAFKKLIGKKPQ
UniProt A2ATE5, as listed by the source: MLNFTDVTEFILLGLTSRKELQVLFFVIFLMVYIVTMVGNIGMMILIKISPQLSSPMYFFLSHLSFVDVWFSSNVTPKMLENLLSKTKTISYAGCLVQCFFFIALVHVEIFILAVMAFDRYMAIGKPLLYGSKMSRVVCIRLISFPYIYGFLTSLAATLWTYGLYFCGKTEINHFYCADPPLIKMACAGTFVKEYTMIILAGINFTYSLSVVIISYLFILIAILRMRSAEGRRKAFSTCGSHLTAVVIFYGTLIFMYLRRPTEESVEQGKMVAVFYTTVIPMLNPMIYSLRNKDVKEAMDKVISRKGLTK
UniProt A2AVB0, as listed by the source: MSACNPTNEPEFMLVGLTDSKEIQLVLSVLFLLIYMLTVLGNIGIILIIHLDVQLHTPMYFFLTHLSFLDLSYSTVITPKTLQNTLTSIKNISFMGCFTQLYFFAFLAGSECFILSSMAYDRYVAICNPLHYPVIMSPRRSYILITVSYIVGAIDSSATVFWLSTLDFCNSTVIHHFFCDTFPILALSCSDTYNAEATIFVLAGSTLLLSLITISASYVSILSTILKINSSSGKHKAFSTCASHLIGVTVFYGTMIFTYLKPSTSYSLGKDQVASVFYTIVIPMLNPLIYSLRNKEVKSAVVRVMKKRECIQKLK

Or1m1 (Mus musculus) = Or1m1 (Mus musculus) (UniProt Q8VFM9)
Method in brief: as §1

Or5ar1 (Mus musculus) = Or5ar1 (Mus musculus) (UniProt Q8VGS3)
Method in brief: as §1

UniProt A2ATE5 = target: UniProt A2ATE5
Method in brief: as §1

UniProt A2AVB0 = target: UniProt A2AVB0
Method in brief: as §1

OR9K2 (Homo sapiens) = target: T1, OR9K2 (Homo sapiens) (UniProt Q8NGE7)
T1 sequence (whole entry): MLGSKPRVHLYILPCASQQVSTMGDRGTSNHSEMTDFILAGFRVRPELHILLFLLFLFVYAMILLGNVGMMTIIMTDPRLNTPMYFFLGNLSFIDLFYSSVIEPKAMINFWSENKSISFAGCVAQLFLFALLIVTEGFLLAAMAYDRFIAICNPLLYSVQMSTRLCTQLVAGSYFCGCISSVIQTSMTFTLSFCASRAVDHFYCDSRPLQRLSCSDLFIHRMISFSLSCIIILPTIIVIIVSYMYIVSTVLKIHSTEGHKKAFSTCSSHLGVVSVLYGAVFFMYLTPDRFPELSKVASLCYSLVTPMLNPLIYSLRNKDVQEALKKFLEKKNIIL
Method in brief: as §1

OR9Q1 = tested on: T2, OR9Q1
T2 sequence (whole entry): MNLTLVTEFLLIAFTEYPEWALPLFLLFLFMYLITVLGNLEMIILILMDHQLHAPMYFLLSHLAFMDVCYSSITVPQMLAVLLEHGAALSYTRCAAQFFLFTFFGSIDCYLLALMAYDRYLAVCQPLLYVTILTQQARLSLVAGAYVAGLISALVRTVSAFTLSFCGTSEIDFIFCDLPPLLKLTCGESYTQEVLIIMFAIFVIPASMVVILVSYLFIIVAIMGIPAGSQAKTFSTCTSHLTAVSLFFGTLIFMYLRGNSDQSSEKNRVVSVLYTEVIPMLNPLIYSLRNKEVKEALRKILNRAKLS
Method in brief: as §1

OR9Q2 (Homo sapiens) = target: T3, OR9Q2 (Homo sapiens) (UniProt Q8NGE9)
T3 sequence (whole entry): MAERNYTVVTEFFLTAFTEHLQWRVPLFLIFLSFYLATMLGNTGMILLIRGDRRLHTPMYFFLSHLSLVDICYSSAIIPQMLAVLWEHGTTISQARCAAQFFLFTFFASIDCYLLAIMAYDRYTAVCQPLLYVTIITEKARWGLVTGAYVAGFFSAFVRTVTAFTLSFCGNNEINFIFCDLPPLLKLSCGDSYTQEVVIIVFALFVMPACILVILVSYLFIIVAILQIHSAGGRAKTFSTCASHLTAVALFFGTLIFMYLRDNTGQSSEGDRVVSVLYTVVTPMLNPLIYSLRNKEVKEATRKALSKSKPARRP
Method in brief: as §1

OR9Q2 = tested on: T4, OR9Q2
T4 sequence (whole entry): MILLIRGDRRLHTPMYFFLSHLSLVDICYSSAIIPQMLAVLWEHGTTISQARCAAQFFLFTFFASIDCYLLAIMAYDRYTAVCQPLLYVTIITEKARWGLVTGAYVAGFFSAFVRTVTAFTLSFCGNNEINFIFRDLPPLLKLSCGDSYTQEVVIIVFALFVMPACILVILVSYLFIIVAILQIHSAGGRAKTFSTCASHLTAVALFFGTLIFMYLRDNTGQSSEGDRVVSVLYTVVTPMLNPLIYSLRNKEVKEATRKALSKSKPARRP
Method in brief: as §1

ORM2B = tested on: T5, ORM2B
T5 sequence (whole entry): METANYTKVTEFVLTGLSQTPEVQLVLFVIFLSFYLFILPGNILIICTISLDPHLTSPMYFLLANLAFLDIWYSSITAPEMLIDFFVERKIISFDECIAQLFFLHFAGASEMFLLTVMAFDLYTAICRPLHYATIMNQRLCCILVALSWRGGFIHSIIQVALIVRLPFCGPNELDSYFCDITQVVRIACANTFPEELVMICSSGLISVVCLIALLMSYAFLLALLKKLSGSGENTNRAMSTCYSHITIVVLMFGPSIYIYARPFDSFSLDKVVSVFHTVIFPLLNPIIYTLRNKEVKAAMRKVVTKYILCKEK
Method in brief: as §1

Measured: odorant receptor agonist call

CCOc1cc(C=O)ccc1O
inactive: Or10j5 (Mus musculus) | Or1m1 (Mus musculus) | Or5ar1 (Mus musculus) | UniProt A2ATE5 | UniProt A2AVB0

CCC(C)=O
not listed: Or10j5 (Mus musculus)
inactive: all other assays above

CS
inactive: OR9K2 (Homo sapiens) | OR9Q1 | OR9Q2 (Homo sapiens) | OR9Q2 | ORM2B

CCCCOC(C)=O
inactive: OR9K2 (Homo sapiens) | OR9Q1 | OR9Q2 (Homo sapiens) | OR9Q2 | ORM2B

— the M2OR odorant receptor database
